Laboratory results: patent US20070071677A1 (priority 2003, published 2007)
“Also recorded” adds a separate entry of the source. Part of at least one peptide drawing is inferred or uncertain, most often the ends. Ends that are not written are not given here.

System: 293T, HeLa, CT26, MCF-7 cells
Assay: Cell translocation (cellular uptake) of FITC-labeled peptides, confocal microscopy and FACS
Assay type: cell-based, human, murine

## VSRRRRRRGGRRRR [TDSP5]
0% versus 10% FBS, FACS
  uptake in presence versus absence of serum: not affected; also recorded: similar
FACS, compared with TAT
  time course / kinetics of cellular uptake: similar
MCF-7 cells, photographs
  uptake at 4° C. versus 37° C.: similar
Confocal microscopy after 15 and 60 minutes incubation
  cell internalization efficiency compared with TAT: as efficiently as the TAT peptides
